Some of the results follow.
biological target: T1, OsSMF1 (Oryza sativa, UniProt Q6ZLB0 1-436); test: protein-binding microarray (RPBM); PBS, 2% BSA, 51.3 ng/ul salmon testes DNA, 50 uM zinc acetate, 200 nM TF, 25 C, 1 h; high values mean tight binding; details: protein: recombinant; tags: N-terminal polyhistidine and DsRed monomer fusion (pET32a); chain copies: 2; label: CyDye5-dUTP incorporated in the synthesized complementary strand; 3' TTTTT single-stranded linker to array surface; dsDNA, one strand shown
T1 sequence: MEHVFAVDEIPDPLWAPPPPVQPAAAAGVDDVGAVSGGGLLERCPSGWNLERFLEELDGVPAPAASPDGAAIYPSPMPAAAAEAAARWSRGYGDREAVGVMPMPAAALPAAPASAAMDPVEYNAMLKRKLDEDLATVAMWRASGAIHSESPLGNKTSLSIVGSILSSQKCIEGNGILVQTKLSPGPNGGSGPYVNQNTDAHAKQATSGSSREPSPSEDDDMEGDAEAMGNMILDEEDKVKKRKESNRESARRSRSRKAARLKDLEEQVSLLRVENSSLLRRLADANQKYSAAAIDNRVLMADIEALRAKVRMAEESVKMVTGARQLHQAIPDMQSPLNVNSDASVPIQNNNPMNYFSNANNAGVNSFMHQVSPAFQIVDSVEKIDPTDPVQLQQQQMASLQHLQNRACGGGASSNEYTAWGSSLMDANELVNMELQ
Summary of the method: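 Ni–NTA purification followed expression in E. coli BL21-CodonPlus of transcription factors fused N-terminally to a polyhistidine tag and DsRed. At 200 nM in PBS with 2% BSA, salmon testes DNA and 50 µM zinc acetate, the protein was incubated for 1 h at 25 °C with a custom Agilent array that had been primer-extended with Cy5-dUTP and blocked with 2% BSA. After washing, the array was read on an Axon 4000B scanner. The binding signal is per-feature fluorescence intensity in arbitrary units.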

Row | Sequence | binding signal
1 | TCTAGAAATTTAGTTAAACTTGGAGTAGTTTGAATTTAACCGGAGTCACCTAGTGCAG | 9960 fluorescence intensity (a.u.)
2 | GTAGTACCCCACTCCAGTCCACTACTGCGCCGCACAAACGCGGAGTCACCTAGTGCAG | 3800 fluorescence intensity (a.u.)
3 | TCGACCGATTGATCGATTGCTCACTGCCATATACATGATACGGAGTCACCTAGTGCAG | 3860 fluorescence intensity (a.u.)
4 | ACAGGTGGGTCCCACGTAATGCCCCGGGCCCTCGTGTCAGCGGAGTCACCTAGTGCAG | 8430 fluorescence intensity (a.u.)
5 | TGGTCGGTTGGTCCGTCCGTGGCGTGGACTCGAAGCCGCCCGGAGTCACCTAGTGCAG | 4110 fluorescence intensity (a.u.)
6 | GGAGGGGACGACGATGGTGGGGTGGGTGGTGTCCGGGGTGCGGAGTCACCTAGTGCAG | 5630 fluorescence intensity (a.u.)
7 | GTTGACCATGGTTGACTTTGCTGAGTAAGCAGGTGGGACCCGGAGTCACCTAGTGCAG | 6580 fluorescence intensity (a.u.)
8 | TAGTATATGCGTCGTCGTCAGCAGCTTGAGGTACGTGTGTCGGAGTCACCTAGTGCAG | 8070 fluorescence intensity (a.u.)
9 | AGGTTCTATGTTCTAAAAGCCTCAACCACTAACTTTAAAACGGAGTCACCTAGTGCAG | 7420 fluorescence intensity (a.u.)
10 | AACTGACACGTGATGACTTAGCTGGAAGCGGCACGGACGGCGGAGTCACCTAGTGCAG | 3880 fluorescence intensity (a.u.)
11 | TACAGACTACAAAGTATCCATCTCAACATGCTTCGTCAGTCGGAGTCACCTAGTGCAG | 3370 fluorescence intensity (a.u.)
12 | TGCAGCTGAGTTTGTAGAGATCGTTGTACGTACGTCGGCTCGGAGTCACCTAGTGCAG | 3410 fluorescence intensity (a.u.)
13 | CCACCTCCGGCGAGCTCCTCACCCACGCAACCATGGTGCTCGGAGTCACCTAGTGCAG | 4080 fluorescence intensity (a.u.)
14 | ACATCCCCAGCTCTCCGGGCCCGACACGTGTCCCGCACAACGGAGTCACCTAGTGCAG | 16200 fluorescence intensity (a.u.)
15 | CGAGCCCGTTTCACGCTCGCGTGGTTCCGCGATCCCGAAGCGGAGTCACCTAGTGCAG | 3300 fluorescence intensity (a.u.)
16 | TACAGCATCATCTCGCCACGTTCTTCCAAAATATTGGTTGCGGAGTCACCTAGTGCAG | 3450 fluorescence intensity (a.u.)
17 | AGAACCAACAATTACATAACAACATGATGACACTGCATTGCGGAGTCACCTAGTGCAG | 5170 fluorescence intensity (a.u.)
18 | ACTTGCCTACAGCGCCAACGCGCAAACAGCAACCACTAGCCGGAGTCACCTAGTGCAG | 3140 fluorescence intensity (a.u.)
19 | GACCCAGCAAGCAAGAGCGTCTAGTCACCTCAACCACGAACGGAGTCACCTAGTGCAG | 6180 fluorescence intensity (a.u.)
20 | GATTAAATACTGTAGCTACGGATAATCAATCCCACGTGTACGGAGTCACCTAGTGCAG | 7540 fluorescence intensity (a.u.)
21 | ATGCAAGGCGCCATGAACCTAAACGATTAGGTTTTCCGTTCGGAGTCACCTAGTGCAG | 7710 fluorescence intensity (a.u.)

Row | Sequence | binding signal
22 | ACTTAGTAAAATGTCATGATGTTGAAGTGTTTAGTGTCCACGGAGTCACCTAGTGCAG | 5890 fluorescence intensity (a.u.)
23 | TTGCAATTGCTGATTGTACATCTGAAATGGTTTCCTTTTGCGGAGTCACCTAGTGCAG | 5010 fluorescence intensity (a.u.)
24 | TAAACAAAGCGCTGCACAAGGAGCGAGGCGGAGGAGGAGGCGGAGTCACCTAGTGCAG | 21700 fluorescence intensity (a.u.)
25 | TAACAAACATAAATCAGTTGAGAGTGAGAGGGACGTGGAACGGAGTCACCTAGTGCAG | 4300 fluorescence intensity (a.u.)
26 | TCTCATCACTCGTGTTAATTCGCATATTCTTTATGGTCTACGGAGTCACCTAGTGCAG | 3200 fluorescence intensity (a.u.)
27 | GCGAACGCCTCTCGCGCGCGTGCTTACTGGTGACTGGTCCCGGAGTCACCTAGTGCAG | 4600 fluorescence intensity (a.u.)
28 | CACTCCCTTCCCCAATTCGCCGTCACCTGCAGCTGAGTGTCGGAGTCACCTAGTGCAG | 3630 fluorescence intensity (a.u.)
29 | CACGCGCCTCGCTGTCACCTATATATGTCCACGTCACCGCCGGAGTCACCTAGTGCAG | 31800 fluorescence intensity (a.u.)
30 | GCTTTATATGGGCCGGCACCTGATGGGCCTTCGTCATTTCCGGAGTCACCTAGTGCAG | 4000 fluorescence intensity (a.u.)
31 | TTTGATTTGGAGGAAGAGGAGAGGGTGGTGTTAGGTGAAACGGAGTCACCTAGTGCAG | 16600 fluorescence intensity (a.u.)
32 | TAGTCCTCCTTGGCTACGGTGTCATAGATCGAGGCCTCCGCGGAGTCACCTAGTGCAG | 50200 fluorescence intensity (a.u.)
33 | AATCGCGAGATATCCACGTGAGATTGCGCAGCGAGACGCGCGGAGTCACCTAGTGCAG | 5140 fluorescence intensity (a.u.)
34 | GTCCGATCCTACTCTCGCGCCACATCGGACGGCCACGATCCGGAGTCACCTAGTGCAG | 3160 fluorescence intensity (a.u.)
35 | AAACTTTATGTATAGAAATAATATATATATATATATATATCGGAGTCACCTAGTGCAG | 29000 fluorescence intensity (a.u.)
36 | CATTTGTAAGTTCAGTTGATATGACATGTAAGTGTATTGTCGGAGTCACCTAGTGCAG | 3960 fluorescence intensity (a.u.)
37 | CGCCCGCCGCCTCCGTCGTCCCCGACCTCTACCACGCCCTCGGAGTCACCTAGTGCAG | 3300 fluorescence intensity (a.u.)
38 | GACCAATTGAAGGTGGTCCACCGGCAATCCTCCCACGTCGCGGAGTCACCTAGTGCAG | 3530 fluorescence intensity (a.u.)
39 | GAAGAAGAGCAAGCCCAAGTGTGCATGCGTGTATGCGCACCGGAGTCACCTAGTGCAG | 3610 fluorescence intensity (a.u.)
40 | TGAATACTGATGGCTACTGATTAACAGGTACACATCAGCCCGGAGTCACCTAGTGCAG | 4810 fluorescence intensity (a.u.)
41 | TGTATGGGCCTTACGTCAGCACGGCCCAGTTGCTGGTTTTCGGAGTCACCTAGTGCAG | 17700 fluorescence intensity (a.u.)
42 | AGGATGGAGGGAGTACTTATCTGACCTCAGAATCCAGGCGCGGAGTCACCTAGTGCAG | 3220 fluorescence intensity (a.u.)

2 entries from above in a different format.

| Row | Sequence | binding signal |
| --- | --- | --- |
| 36 | CATTTGTAAGTTCAGTTGATATGACATGTAAGTGTATTGTCGGAGTCACCTAGTGCAG | 3960 fluorescence intensity (a.u.) |
| 41 | TGTATGGGCCTTACGTCAGCACGGCCCAGTTGCTGGTTTTCGGAGTCACCTAGTGCAG | 17700 fluorescence intensity (a.u.) |
